Experimental data published in PubChem BioAssay AID200 (DTP/NCI, 2004).
The list is a part of this screen's results and no random one: it is rich in T/C values a quarter to a half above the control, in often repeated tests (any T/C) and in doses without a T/C. Other doses and runs of a compound stand elsewhere. T/C gives the treated animals as a percentage of the vehicle group. Some doses have a count of surviving animals in place of a T/C: the source files T/C as zero there, which appears to mark a toxic dose or a test without result, not a measured value. Some doses without a T/C left all or most animals alive at the check, yet need not have been tolerated: survival well below the control is almost never listed, so the zero probably covers shortened survival too. Counts of survivors are from the toxicity check (mostly the fifth day) where no day follows; animals may have died later. Schedules are NCI's codes, read here as Q, the interval in days (D) or hours (H), X, the number of doses. Some doses were run more than once; the results are listed from low to high. Some structures stand for samples that the source files as different forms (salt, stereo form or complex); doses refer to the form tested. For survival time, this PubChem deposit counts one and a half times the control or more as active, and values a quarter to a half above the control carry no call in these data; other NCI protocols may use other cut-offs. Some T/C values are followed by the survivors on the day toxicity was checked, most often the fifth; without a count, all were alive then.

System: B6C3F1 mice, B16 melanoma ip, median survival T/C
Experiment: NCI In Vivo Anticancer Drug Screen. Data for tumor model B16 Melanoma (intraperitoneal) in B6C3F1 mice
Settings: T/C endpoint: median survival time, higher T/C = longer survival
Method in brief: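 Values are T/C ratios: the measurement in treated animals divided by that in vehicle-treated controls, using survival or tumor size in mice carrying transplantable tumors.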

[1] = dose: 200.0 mg/kg/injection, schedule: Q01DX009 (ip), vehicle: saline
[2] = dose: 25.0 mg/kg/injection, schedule: Q01DX009 (ip), vehicle: saline with Tween-80
[3] = dose: 400.0 mg/kg/injection, schedule: Q01DX009 (ip), vehicle: saline

What does the source list for O=C(NO)c1ccc(O)c(O)c1?
T/C (dose: 200.0 mg/kg/injection, schedule: Q01DX009 (ip), vehicle: water): 125 % of control; T/C (dose: 240.0 mg/kg/injection, schedule: Q01DX009 (ip), vehicle: water): 136 % of control; T/C (dose: 264.0 mg/kg/injection, schedule: Q01DX009 (ip), vehicle: other): 129 % of control; survivor count (dose: 264.0 mg/kg/injection, schedule: Q01DX009 (ip), vehicle: water): 10 of 10; T/C (dose: 400.0 mg/kg/injection, schedule: Q01DX009 (ip), vehicle: other): 141 % of control; T/C (dose: 400.0 mg/kg/injection, schedule: Q01DX009 (ip), vehicle: water): 102 [8 of 10 alive], 112, 117, 125 % of control; T/C (dose: 480.0 mg/kg/injection, schedule: Q01DX009 (ip), vehicle: water): 136 % of control; survivor count (dose: 600.0 mg/kg/injection, schedule: Q01DX009 (ip), vehicle: water): 4 of 10; survivor count (dose: 720.0 mg/kg/injection, schedule: Q01DX009 (ip), vehicle: water): 7 of 10; survivor count (dose: 800.0 mg/kg/injection, schedule: Q01DX009 (ip), vehicle: water): 0 of 10 and 2 of 10

Which survivor count (dose: 50.0 mg/kg/injection, schedule: Q01DX009 (ip), vehicle: Klucel (hydroxypropylcellulose) (HPC)) does the source give for CC1(C)N=C(N)N=C(N)N1c1cccc(CCCCc2cccc(N)c2)c1 here?
Its survivor count is 0 of 10.

CCCCN(CCCC)CCNc1ccc(Cl)c2oc3cc(C)ccc3c(=O)c12 was tested. Which survivor count [1] did it give?
Its survivor count is 10 of 10.

What does the source list for CN1CCN(CN2C(=O)C3C4C=CC(C3C2=O)C2C3C(=O)N(CN5CCN(C)CC5)C(=O)C3C42)CC1 (configuration not stated)?
survivor count (dose: 124.0 mg/kg/injection, schedule: Q01DX009 (ip), vehicle: water): 6 of 10; survivor count (dose: 166.7 mg/kg/injection, schedule: Q01DX009 (ip), vehicle: water): 2 of 10

Which results are given for COc1cccc2c1C(=O)c1c(O)c3c(c(O)c1C2=O)C[C@@](O)(C(C)=O)C[C@@H]3OC1CC(N2CCOCC2)C(O)C(C)O1 (some centres not stated)?
T/C (dose: 0.25 mg/kg/injection, schedule: Q01DX001 (ip), vehicle: water): 144 % of control; survivor count (dose: 0.5 mg/kg/injection, schedule: Q01DX001 (ip), vehicle: water): 9 of 10; survivor count (dose: 1.0 mg/kg/injection, schedule: Q01DX001 (ip), vehicle: water): 7 of 10; survivor count (dose: 2.0 mg/kg/injection, schedule: Q01DX001 (ip), vehicle: water): 0 of 10; T/C (dose: 250.0 micrograms/kg/injection, schedule: Q01DX001 (ip), vehicle: water): 126 % of control; survivor count (dose: 500.0 micrograms/kg/injection, schedule: Q01DX001 (ip), vehicle: water): 6 of 10

With COC(=O)Nc1nc2ccc(C3(c4ccc(F)cc4)OCCO3)cc2[nH]1 as the compound, how does the T/C (dose: 12.5 mg/kg/injection, schedule: Q01DX009 (ip), vehicle: saline with Tween-80) read?
Its T/C is 129 % of control.

And the T/C [2]?
The T/C was 134 % of control.

What about the survivor count [2] of the same compound?
Its survivor count is 10 of 10.

And the T/C (dose: 25.0 mg/kg/injection, schedule: Q01DX009 (ip), vehicle: saline)?
Its T/C is 138 % of control.

What about the T/C (dose: 50.0 mg/kg/injection, schedule: Q01DX009 (ip), vehicle: saline with Tween-80) of the same compound?
Its T/C is 143 % of control.

And the survivor count (dose: 50.0 mg/kg/injection, schedule: Q01DX009 (ip), vehicle: saline)?
The survivor count was 10 of 10.

What about the survivor count (dose: 100.0 mg/kg/injection, schedule: Q01DX009 (ip), vehicle: saline with Tween-80) of the same compound?
Its survivor count is 1 of 10 and 4 of 10.

What about the survivor count (dose: 100.0 mg/kg/injection, schedule: Q01DX009 (ip), vehicle: saline) of the same compound?
The survivor count was 4 of 10.

And the survivor count (dose: 200.0 mg/kg/injection, schedule: Q01DX009 (ip), vehicle: saline with Tween-80)?
Its survivor count is 1 of 10.

What about the survivor count [1] of the same compound?
The survivor count was 0 of 10.

And the survivor count (dose: 400.0 mg/kg/injection, schedule: Q01DX009 (ip), vehicle: saline with Tween-80)?
The survivor count was 0 of 10.

What about the survivor count [3] of the same compound?
The survivor count was 0 of 10.

COC1=CCC23C(=O)C=CC(=O)C2(C1)C(=O)c1ccccc1C3=O (configuration not stated) was tested. Which survivor count [2] did it give?
The survivor count was 10 of 10.

With O=C1C=CC(=Nc2ccc3c(c2)C(Br)c2ccccc2-3)O1 (configuration not stated) as the compound, how does the survivor count (dose: 20.0 mg/kg/injection, schedule: Q01DX009 (ip), vehicle: saline) read?
The survivor count was 10 of 10.

c1csc(C[N+]23CN4CN(CN(C4)C2)C3)c1 was tested. Which survivor count [3] did it give?
Its survivor count is 0 of 10.

Which results are given for C1CN(P2(N3CC3)=NP(N3CC3)(N3CC3)=NP(N3CC3)(N3CC3)=N2)CCO1 (configuration not stated)?
T/C (dose: 4.0 mg/kg/injection, schedule: Q01DX009 (ip), vehicle: saline): 131 % of control; T/C (dose: 4.0 mg/kg/injection, schedule: Q02DX009 (ip), vehicle: saline): 133 % of control; T/C (dose: 8.0 mg/kg/injection, schedule: Q01DX009 (ip), vehicle: saline): 148 % of control; T/C (dose: 16.0 mg/kg/injection, schedule: Q01DX009 (ip), vehicle: saline): 137 % of control [9 of 10 alive]; T/C (dose: 16.0 mg/kg/injection, schedule: Q02DX009 (ip), vehicle: saline): 132 % of control; survivor count (dose: 64.0 mg/kg/injection, schedule: Q01DX009 (ip), vehicle: saline): 9 of 10 and 10 of 10; survivor count (dose: 64.0 mg/kg/injection, schedule: Q02DX009 (ip), vehicle: saline): 7 of 10 and 10 of 10
